The record followed here is article PMC4931318.

By UniProt entry, the sequences of proteins in these tests, tags left out. Residues count along the entry.
UniProt P28799, residues 18-593: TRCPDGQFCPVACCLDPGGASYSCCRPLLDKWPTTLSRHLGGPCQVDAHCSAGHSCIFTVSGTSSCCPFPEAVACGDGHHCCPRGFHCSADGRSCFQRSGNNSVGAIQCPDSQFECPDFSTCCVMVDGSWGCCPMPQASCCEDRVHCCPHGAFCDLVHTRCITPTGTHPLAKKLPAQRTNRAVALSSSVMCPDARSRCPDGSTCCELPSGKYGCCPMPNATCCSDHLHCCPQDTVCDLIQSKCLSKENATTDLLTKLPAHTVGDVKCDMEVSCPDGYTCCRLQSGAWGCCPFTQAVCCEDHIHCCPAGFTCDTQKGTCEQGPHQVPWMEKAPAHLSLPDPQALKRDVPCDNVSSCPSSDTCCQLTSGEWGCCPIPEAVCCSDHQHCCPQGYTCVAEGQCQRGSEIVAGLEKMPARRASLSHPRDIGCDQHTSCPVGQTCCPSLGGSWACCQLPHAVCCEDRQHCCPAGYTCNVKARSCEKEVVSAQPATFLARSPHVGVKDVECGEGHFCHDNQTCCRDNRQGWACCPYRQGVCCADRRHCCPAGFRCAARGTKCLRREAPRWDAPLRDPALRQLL

Holding throughout (test): co-IP; serum-free conditioned medium of co-transfected HeLa cells, concentrated (50 kDa cutoff), IP with anti-V5 antibody or mouse IgG control on Protein G Dynabeads, immunoblot
(In general: Immunoblotting shows a protein as a band on a membrane.)

Test [1] concerns the target T1, V5-tagged C-terminal deletion (ΔCter) PSAP (human) (UniProt P07602).
T1 sequence: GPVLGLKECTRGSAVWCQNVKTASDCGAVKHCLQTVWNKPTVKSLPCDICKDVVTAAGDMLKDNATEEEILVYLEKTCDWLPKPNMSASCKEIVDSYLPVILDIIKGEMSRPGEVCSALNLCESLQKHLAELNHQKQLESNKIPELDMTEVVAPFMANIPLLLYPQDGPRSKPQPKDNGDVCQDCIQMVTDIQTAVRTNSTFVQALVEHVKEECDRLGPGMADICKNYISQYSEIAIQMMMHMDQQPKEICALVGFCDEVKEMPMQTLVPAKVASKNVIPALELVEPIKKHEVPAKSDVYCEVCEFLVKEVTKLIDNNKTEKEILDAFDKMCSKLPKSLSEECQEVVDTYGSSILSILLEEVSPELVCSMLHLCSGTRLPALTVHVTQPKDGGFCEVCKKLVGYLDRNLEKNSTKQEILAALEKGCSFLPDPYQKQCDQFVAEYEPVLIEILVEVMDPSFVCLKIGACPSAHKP

Test [2] has as its target T2, V5-tagged wild-type PSAP (prosaposin) (human) (UniProt P07602).
T2 sequence: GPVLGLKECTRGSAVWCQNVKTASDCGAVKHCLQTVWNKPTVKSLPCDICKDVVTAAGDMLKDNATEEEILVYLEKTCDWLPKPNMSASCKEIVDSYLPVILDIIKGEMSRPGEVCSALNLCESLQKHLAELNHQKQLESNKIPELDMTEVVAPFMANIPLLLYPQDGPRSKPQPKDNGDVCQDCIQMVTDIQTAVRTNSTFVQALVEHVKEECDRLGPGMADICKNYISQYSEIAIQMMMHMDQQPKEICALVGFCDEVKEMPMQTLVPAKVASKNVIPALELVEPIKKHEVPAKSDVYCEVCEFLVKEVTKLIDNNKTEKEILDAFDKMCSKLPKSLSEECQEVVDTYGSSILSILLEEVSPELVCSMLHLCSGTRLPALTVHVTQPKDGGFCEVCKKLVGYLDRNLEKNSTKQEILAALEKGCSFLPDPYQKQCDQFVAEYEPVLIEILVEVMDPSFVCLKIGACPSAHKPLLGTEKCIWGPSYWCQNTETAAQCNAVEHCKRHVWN

The target of test [3] is V5-tagged PGRN (progranulin) (human) (UniProt P28799).

No constants are given. Whether binding was seen depends on the method and setting. In cells and extracts the contact can be indirect. Some entries that bind do so weakly or less than the wild type. Tags and fused reporters may be left off the sequences shown.

In the case of “untagged PGRN (progranulin), transfected (from UniProt P28799 18-593)”, the binding entry in test [1] and in test [2] was “binds” in each case.

B1: untagged C-terminal deletion (ΔCter) PSAP (domain or fragment, UniProt P07602-2 17-490)
chain: T1 sequence
As to B1, in test [3], the binding entry is reported as “binds”.

B2: untagged wild-type PSAP (prosaposin) (protein, UniProt P07602-2 17-526)
chain: T2 sequence
As for B2, in test [3], the binding result is given as “binds”.
